Values quoted from earlier work, collected in patent US20050004102A1, “Monohydroxycarbamazepine for use in the preparation of a medicament for the treatment of affective and attention disorder and neuropathic pain” (priority 2001, published 2005).

Tested on: GABA turnover
Settings: known from the literature; cited from earlier work

SMILES: CN1C(=O)CN=C(c2ccccc2)c2cc(Cl)ccc21 [diazepam]
- GABA turnover rate: inhibit the GABA turnover rate
